Reference: the supplement of paper PMC6411743
± gives the standard deviation of the averaged measurements. The list shows a part of the results, in another mix than the full data. Small differences around the control level are noise.

The chains behind the UniProt entries cited, without tags or fusion partners. Where a name states a change or a piece, a line headed by the entry shows the natural chain unless it says otherwise.
UniProt Q8WVK7: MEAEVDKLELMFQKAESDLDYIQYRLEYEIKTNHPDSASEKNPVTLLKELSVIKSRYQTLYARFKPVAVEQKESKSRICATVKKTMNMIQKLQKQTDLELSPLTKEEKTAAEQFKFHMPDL
UniProt Q8WU90: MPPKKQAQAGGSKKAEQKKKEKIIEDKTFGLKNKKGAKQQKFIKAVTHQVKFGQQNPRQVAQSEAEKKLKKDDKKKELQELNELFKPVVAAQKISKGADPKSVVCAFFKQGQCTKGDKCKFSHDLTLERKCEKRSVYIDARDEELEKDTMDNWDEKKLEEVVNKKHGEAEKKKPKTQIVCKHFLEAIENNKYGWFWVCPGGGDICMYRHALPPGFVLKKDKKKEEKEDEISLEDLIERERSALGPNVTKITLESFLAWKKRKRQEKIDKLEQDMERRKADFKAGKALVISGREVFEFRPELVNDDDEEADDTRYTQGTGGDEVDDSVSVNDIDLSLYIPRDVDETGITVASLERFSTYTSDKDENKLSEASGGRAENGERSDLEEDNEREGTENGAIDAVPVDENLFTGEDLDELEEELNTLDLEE
UniProt Q8WXW3: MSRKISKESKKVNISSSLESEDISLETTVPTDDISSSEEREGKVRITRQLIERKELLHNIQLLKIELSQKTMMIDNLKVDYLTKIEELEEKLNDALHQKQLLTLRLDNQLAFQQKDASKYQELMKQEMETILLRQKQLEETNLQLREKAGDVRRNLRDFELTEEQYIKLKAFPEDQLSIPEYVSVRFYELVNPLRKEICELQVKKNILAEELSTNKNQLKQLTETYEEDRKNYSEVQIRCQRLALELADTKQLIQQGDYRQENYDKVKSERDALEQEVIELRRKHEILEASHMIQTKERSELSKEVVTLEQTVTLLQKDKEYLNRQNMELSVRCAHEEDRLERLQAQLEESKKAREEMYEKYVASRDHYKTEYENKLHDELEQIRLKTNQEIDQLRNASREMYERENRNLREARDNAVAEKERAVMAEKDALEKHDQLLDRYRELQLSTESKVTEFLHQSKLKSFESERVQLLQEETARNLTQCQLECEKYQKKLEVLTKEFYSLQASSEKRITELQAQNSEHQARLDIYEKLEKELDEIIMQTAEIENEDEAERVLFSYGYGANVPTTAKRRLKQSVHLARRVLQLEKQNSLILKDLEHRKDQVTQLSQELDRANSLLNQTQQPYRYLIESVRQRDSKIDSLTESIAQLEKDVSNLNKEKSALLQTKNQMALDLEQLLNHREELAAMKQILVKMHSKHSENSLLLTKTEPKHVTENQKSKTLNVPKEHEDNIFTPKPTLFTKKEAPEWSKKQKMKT
UniProt Q92734, whole entry: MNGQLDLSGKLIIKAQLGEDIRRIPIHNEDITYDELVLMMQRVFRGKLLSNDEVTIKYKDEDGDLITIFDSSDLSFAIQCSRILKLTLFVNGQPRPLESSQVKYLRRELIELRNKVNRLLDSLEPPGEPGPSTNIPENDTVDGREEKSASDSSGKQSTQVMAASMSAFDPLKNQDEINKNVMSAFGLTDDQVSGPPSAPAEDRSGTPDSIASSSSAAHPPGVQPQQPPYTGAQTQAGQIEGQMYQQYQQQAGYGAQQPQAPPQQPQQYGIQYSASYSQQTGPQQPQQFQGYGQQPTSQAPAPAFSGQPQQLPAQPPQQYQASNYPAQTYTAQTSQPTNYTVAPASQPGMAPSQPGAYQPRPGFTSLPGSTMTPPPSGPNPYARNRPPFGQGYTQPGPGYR
UniProt Q8NHH9: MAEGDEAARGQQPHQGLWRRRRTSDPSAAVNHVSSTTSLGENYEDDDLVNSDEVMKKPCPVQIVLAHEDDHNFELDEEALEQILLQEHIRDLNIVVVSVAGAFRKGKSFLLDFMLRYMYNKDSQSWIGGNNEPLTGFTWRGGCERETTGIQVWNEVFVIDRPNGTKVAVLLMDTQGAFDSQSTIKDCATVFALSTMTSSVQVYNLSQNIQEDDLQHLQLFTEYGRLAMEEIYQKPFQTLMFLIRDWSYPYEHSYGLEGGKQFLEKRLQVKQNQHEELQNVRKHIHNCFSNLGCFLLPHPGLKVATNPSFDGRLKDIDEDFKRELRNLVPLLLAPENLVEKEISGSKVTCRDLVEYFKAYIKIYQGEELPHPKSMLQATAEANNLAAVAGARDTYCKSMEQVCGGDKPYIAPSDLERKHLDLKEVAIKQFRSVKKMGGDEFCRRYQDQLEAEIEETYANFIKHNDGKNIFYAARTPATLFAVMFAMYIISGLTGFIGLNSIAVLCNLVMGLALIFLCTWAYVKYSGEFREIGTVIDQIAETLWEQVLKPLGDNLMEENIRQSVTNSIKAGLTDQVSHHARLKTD
UniProt Q8NEN9: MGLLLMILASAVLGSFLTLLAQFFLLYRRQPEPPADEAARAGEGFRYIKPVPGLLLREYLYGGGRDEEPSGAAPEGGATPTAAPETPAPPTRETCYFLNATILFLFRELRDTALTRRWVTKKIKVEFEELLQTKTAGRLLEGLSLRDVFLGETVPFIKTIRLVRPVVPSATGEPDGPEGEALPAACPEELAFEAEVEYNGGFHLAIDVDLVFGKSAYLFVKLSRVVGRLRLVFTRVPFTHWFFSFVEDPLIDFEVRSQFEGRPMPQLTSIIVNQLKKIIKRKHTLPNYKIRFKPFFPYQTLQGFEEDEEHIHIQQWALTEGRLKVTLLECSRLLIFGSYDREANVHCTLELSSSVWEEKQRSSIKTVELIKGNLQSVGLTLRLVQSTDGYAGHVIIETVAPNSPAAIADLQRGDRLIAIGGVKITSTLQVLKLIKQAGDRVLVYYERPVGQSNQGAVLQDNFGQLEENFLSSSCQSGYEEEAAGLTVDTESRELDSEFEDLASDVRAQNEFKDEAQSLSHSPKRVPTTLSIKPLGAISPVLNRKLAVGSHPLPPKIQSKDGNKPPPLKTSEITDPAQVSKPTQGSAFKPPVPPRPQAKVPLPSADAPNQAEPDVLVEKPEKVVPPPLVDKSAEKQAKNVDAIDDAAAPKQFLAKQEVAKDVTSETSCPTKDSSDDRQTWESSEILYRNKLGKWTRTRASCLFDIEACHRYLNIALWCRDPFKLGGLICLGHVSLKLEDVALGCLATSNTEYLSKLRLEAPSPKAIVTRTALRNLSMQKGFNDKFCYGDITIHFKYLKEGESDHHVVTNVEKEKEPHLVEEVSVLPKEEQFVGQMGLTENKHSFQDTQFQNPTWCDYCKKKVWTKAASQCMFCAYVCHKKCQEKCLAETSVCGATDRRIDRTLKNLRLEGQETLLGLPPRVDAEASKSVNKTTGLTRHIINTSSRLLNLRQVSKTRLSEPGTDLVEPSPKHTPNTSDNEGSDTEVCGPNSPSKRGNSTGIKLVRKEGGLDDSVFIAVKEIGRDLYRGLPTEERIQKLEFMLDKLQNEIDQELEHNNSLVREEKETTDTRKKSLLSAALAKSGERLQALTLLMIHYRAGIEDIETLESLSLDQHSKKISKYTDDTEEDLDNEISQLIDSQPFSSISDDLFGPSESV
UniProt Q8TAD8: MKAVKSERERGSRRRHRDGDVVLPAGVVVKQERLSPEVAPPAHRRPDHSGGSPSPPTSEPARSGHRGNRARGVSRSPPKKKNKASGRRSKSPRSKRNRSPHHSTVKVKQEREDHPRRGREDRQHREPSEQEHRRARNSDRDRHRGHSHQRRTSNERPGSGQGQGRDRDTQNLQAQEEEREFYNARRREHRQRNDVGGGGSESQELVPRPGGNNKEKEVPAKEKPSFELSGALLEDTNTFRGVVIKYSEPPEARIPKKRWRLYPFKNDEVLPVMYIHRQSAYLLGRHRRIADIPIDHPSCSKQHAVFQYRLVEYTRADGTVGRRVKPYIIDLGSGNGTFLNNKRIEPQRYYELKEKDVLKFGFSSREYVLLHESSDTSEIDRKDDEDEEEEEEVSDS
UniProt Q8WY54: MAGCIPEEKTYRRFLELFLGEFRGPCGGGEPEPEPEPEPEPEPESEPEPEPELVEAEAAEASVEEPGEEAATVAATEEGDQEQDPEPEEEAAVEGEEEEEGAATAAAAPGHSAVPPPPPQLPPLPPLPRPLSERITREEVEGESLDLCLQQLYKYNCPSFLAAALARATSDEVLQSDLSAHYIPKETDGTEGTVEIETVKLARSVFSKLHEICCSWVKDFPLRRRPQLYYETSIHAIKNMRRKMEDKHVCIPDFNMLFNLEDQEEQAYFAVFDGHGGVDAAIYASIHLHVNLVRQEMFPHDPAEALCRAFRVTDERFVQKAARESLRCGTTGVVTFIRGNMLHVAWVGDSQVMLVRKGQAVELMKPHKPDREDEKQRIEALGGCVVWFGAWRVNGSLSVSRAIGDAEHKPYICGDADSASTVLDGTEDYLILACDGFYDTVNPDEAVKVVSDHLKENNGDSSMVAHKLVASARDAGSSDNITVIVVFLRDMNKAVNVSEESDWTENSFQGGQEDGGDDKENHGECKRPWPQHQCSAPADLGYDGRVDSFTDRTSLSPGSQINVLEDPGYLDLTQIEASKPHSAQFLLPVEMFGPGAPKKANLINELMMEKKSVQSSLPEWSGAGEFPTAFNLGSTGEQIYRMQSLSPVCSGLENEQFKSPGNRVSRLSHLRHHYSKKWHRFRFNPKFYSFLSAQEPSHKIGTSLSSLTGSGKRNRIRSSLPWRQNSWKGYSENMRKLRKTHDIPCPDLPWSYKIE
UniProt Q8TF05: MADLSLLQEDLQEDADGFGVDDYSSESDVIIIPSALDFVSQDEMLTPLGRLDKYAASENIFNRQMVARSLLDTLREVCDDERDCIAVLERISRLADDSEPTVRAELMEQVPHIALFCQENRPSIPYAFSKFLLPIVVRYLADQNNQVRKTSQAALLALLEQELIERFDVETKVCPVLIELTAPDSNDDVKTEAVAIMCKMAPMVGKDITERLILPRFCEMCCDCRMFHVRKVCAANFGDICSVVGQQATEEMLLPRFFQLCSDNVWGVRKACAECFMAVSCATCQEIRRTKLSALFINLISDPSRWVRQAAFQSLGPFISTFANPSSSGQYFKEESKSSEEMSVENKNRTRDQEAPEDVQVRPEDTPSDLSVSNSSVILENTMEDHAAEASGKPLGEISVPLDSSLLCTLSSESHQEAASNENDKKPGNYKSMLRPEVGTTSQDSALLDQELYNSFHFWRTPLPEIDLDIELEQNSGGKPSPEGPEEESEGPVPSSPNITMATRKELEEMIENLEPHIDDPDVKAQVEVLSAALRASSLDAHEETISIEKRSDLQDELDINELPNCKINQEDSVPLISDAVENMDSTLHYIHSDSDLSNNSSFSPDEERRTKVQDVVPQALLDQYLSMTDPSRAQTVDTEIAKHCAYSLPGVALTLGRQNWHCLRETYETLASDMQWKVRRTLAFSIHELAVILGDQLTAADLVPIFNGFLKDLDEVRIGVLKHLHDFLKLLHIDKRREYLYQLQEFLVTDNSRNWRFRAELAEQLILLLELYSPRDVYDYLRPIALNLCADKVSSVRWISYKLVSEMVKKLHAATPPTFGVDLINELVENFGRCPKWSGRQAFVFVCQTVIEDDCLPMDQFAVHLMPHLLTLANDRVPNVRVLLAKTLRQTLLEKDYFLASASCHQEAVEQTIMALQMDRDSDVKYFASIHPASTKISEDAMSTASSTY
UniProt Q8TCD1: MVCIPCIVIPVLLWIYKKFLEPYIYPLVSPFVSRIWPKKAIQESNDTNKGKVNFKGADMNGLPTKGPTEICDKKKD
UniProt Q92520: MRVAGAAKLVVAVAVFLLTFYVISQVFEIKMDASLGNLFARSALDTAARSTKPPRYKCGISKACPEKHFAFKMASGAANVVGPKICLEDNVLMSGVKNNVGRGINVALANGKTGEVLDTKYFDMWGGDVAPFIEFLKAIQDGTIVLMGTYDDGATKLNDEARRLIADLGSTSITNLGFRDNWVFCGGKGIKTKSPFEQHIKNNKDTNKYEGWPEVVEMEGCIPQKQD
UniProt Q8NCN4: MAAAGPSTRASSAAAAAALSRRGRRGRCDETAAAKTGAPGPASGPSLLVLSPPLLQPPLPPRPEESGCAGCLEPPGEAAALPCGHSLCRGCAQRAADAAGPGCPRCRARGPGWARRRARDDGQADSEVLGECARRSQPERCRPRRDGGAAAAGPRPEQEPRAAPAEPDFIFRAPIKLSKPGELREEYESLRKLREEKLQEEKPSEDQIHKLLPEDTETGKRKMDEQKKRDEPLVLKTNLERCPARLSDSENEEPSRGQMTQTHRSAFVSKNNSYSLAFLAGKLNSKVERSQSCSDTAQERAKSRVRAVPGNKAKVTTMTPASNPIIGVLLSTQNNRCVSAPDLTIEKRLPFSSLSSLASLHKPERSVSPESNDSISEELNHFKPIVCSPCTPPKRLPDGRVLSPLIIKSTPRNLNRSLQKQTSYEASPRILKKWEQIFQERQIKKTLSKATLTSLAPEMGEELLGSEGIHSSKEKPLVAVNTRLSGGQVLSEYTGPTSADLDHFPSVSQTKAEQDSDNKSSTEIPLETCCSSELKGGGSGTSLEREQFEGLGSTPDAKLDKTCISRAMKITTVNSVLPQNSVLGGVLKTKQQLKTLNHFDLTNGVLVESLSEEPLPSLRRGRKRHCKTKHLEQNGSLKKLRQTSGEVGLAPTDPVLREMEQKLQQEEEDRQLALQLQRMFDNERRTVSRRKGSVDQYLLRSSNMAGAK

compound: Nc1ncnc2c1ncn2[C@@H]1O[C@H](COP(=O)(O)OP(=O)(O)NP(=O)(O)O)[C@@H](O)[C@H]1O [adenylyl imidodiphosphate]; assay: NP40-soluble protein abundance relative to vehicle (solubility fold change) (ratio); higher = more soluble protein in presence of AMP-PNP; settings: concentration: 0.1mM
Procedure, shortened: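 Jurkat crude lysate prepared with a Dounce homogeniser was treated at eight concentrations spanning 0.1 to 10 mM, 10 min at room temperature then 3 min at 37 °C. Solubilisation with 0.8% NP40 and benzonase and ultracentrifugation preceded TMT labelling of the supernatant for LC-MS/MS. Fold change against the detergent-processed vehicle was determined per replicate from vsn-normalised intensities, across three independent experiments.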

Target	NP40-soluble protein abundance
NUP210 (UniProt Q8TEM1)	1.04 ± 0.018
GTF3C2 (UniProt Q8WUA4)	0.973 ± 0.014
UniProt Q8WVK7	0.995 ± 0.041
ZC3H15 (UniProt Q8WU90)	0.9726 ± 0.0085
BAP1 (UniProt Q92560)	0.991 ± 0.016
UniProt Q8NCE2-2	1 ± 0.032
UniProt Q8NG08 and related entries	1.01 ± 0.033
PIBF1 (UniProt Q8WXW3)	0.9824 ± 0.0037
GPT2 (UniProt Q8TD30)	1.01 ± 0.035
UniProt Q92614 and related entries	1.01 ± 0.021
UniProt Q92734 and related entries	0.986 ± 0.024
UniProt Q8NHH9 and related entries	1.01 ± 0.013
PDZD8 (UniProt Q8NEN9)	0.997 ± 0.022
UniProt Q8TCB7 and related entries	0.996 ± 0.018
UniProt Q92572	0.999 ± 0.047
CXorf38 (UniProt Q8TB03)	1.006 ± 0.0066
SNIP1 (UniProt Q8TAD8)	0.987 ± 0.016
SEMA4D (UniProt Q92854)	0.997 ± 0.035
CORO2A (UniProt Q92828)	1.01 ± 0.014

Target	NP40-soluble protein abundance
GSTCD (UniProt Q8NEC7)	0.991 ± 0.019
UniProt Q8TCY9	1.01 ± 0.034
UniProt Q8WWY3 and related entries	0.984 ± 0.02
UniProt Q8WY54 and related entries	0.999 ± 0.031
UniProt Q8TEQ0 and related entries	0.995 ± 0.011
UniProt Q8TF05 and related entries	1.01 ± 0.064
UniProt Q8NC60	0.962 ± 0.076
TRUB1 (UniProt Q8WWH5)	1.02 ± 0.055
SYMPK (UniProt Q92797)	1.02 ± 0.017
UniProt Q8TBA6 and related entries	0.962 ± 0.011
ENGASE (UniProt Q8NFI3)	1.03 ± 0.067
C18orf32 (UniProt Q8TCD1)	0.95692 ± 0.00012
FAM3C (UniProt Q92520)	0.95 ± 0.018
RNF169 (UniProt Q8NCN4)	1.08 ± 0.22
UniProt Q92918-2|K7ER95	1.03 ± 0.023
TFB1M (UniProt Q8WVM0)	1 ± 0.06
UniProt Q8TB72-3	0.9713 ± 0.0054
UniProt Q92834 and related entries	0.969 ± 0.013
UniProt Q8NBZ7 and related entries	0.976 ± 0.018

Two successive records out of the list so far, for reference:
Target	NP40-soluble protein abundance
UniProt Q92834 and related entries	0.969 ± 0.013
UniProt Q8NBZ7 and related entries	0.976 ± 0.018
